Experimental data: PubChem BioAssay AID1259308 (NCATS, 2017)
The deposit covers about 59,000 reagents; below is a random part of them. About 1,510 of all reagents (2.6%) were called active. 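Calls use total luciferase alone and ignore viability, so some active siRNAs may act by altering cell number.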 A number with no mark means an inactive call. The numbers tell different reagents against one gene apart. Further read-outs or replicates are left out here.

- Aim: 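Candidate targets for better recombinant protein yield in mammalian cells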 (primary screen)
- Cell system: human HEK293 embryonic kidney cells stably expressing firefly luciferase (HEK-CMV-Luc2-Hygro)
- Reagents: single siRNA against human genes, 0.8 pmol siRNA per well
- Timing: 72 h
- Measured: 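Reporter luminescence and viable-cell signal on separate replicate plates, given as percent of non-targeting control and median/MAD z-scores, plus per-cell luciferase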
- Reading the numbers: total luciferase, z-score and total luciferase, % of control: higher = more reporter protein produced; luciferase per cell, z-score: higher = more reporter output per viable cell
- Hit rule: 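An siRNA counts as active if its total luciferase robust z-score exceeds 3; genes with two or more such siRNAs out of three were retested with fresh siRNAs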
- Meaning of the calls: active = raised luciferase; inactive = no rise

target gene | siRNA no. | total luciferase, z-score | total luciferase, % of control | luciferase per cell, z-score
PRR5L (proline rich 5 like) | 1 | 1.39 | 109 | 0.803
PRR5L (proline rich 5 like) | 2 | -0.358 | 74.8 | 0.107
PRR5L (proline rich 5 like) | 3 | -1.26 | 56.8 | -1.83
RPA4 (replication protein A4) | 1 | 2.5 | 132 | 2.52
RPA4 (replication protein A4) | 2 | -0.514 | 71.7 | -0.833
RPA4 (replication protein A4) | 3 | -0.815 | 65.7 | -1.5
LOC730098 | 1 | -1.95 | 43.1 | -2.78
LOC730098 | 2 | 0.456 | 91 | 0.242
LOC730098 | 3 | -1.05 | 61 | -1.7
MCCC1 (methylcrotonyl-CoA carboxylase subunit 1) | 1 | 1.22 | 106 | 0.98
MCCC1 (methylcrotonyl-CoA carboxylase subunit 1) | 2 | -1.26 | 56.8 | -1.17
MCCC1 (methylcrotonyl-CoA carboxylase subunit 1) | 3 | 1.28 | 107 | 1.91
MOGAT3 (monoacylglycerol O-acyltransferase 3) | 1 | -0.717 | 67.6 | -0.761
MOGAT3 (monoacylglycerol O-acyltransferase 3) | 2 | -0.0961 | 80 | -0.518
MOGAT3 (monoacylglycerol O-acyltransferase 3) | 3 | -1.11 | 59.9 | -0.589
IGFBP5 (insulin like growth factor binding protein 5) | 1 | -0.332 | 75.3 | -0.472
IGFBP5 (insulin like growth factor binding protein 5) | 2 | -1.46 | 52.9 | -0.475
IGFBP5 (insulin like growth factor binding protein 5) | 3 | -2.24 | 37.3 | -2.36
SCHIP1 (schwannomin interacting protein 1) | 1 | 0.91 | 100 | 0.0405
SCHIP1 (schwannomin interacting protein 1) | 2 | 3.47 (active) | 151 | 2.24
SCHIP1 (schwannomin interacting protein 1) | 3 | 0.988 | 102 | 0.311
IL2RG (interleukin 2 receptor subunit gamma) | 1 | -0.433 | 73.3 | -0.366
IL2RG (interleukin 2 receptor subunit gamma) | 2 | -0.582 | 70.3 | 0.0886
IL2RG (interleukin 2 receptor subunit gamma) | 3 | 0.373 | 89.3 | 0.592

Continued; the last 5 above are carried over.
target gene | siRNA no. | total luciferase, z-score | total luciferase, % of control | luciferase per cell, z-score
SCHIP1 (schwannomin interacting protein 1) | 2 | 3.47 (active) | 151 | 2.24
SCHIP1 (schwannomin interacting protein 1) | 3 | 0.988 | 102 | 0.311
IL2RG (interleukin 2 receptor subunit gamma) | 1 | -0.433 | 73.3 | -0.366
IL2RG (interleukin 2 receptor subunit gamma) | 2 | -0.582 | 70.3 | 0.0886
IL2RG (interleukin 2 receptor subunit gamma) | 3 | 0.373 | 89.3 | 0.592
EIF3K (eukaryotic translation initiation factor 3 subunit K) | 1 | 1.07 | 103 | 3.08
EIF3K (eukaryotic translation initiation factor 3 subunit K) | 2 | 0.825 | 98.3 | 0.781
EIF3K (eukaryotic translation initiation factor 3 subunit K) | 3 | -0.291 | 76.1 | -0.337
ITGA6 (integrin subunit alpha 6) | 1 | -1.67 | 48.7 | -1.67
ITGA6 (integrin subunit alpha 6) | 2 | -1.21 | 57.9 | -1.95
ITGA6 (integrin subunit alpha 6) | 3 | -1.14 | 59.2 | -1.98
HIP1R (huntingtin interacting protein 1 related) | 1 | -2.3 | 36.2 | -0.442
HIP1R (huntingtin interacting protein 1 related) | 2 | 1.15 | 105 | 0.807
HIP1R (huntingtin interacting protein 1 related) | 3 | 0.941 | 101 | 0.271
VPREB1 (V-set pre-B cell surrogate light chain 1) | 1 | 0.436 | 90.6 | 0.753
VPREB1 (V-set pre-B cell surrogate light chain 1) | 2 | 0.245 | 86.8 | -0.0178
VPREB1 (V-set pre-B cell surrogate light chain 1) | 3 | 2.99 | 141 | 1.59
PAGR1 (PAXIP1 associated glutamate rich protein 1) | 1 | -1.19 | 58.3 | -0.926
PAGR1 (PAXIP1 associated glutamate rich protein 1) | 2 | 2.69 | 135 | 2.73
PAGR1 (PAXIP1 associated glutamate rich protein 1) | 3 | -1.12 | 59.6 | -0.313
LTBP3 (latent transforming growth factor beta binding protein 3) | 1 | -0.204 | 77.8 | 0.559
LTBP3 (latent transforming growth factor beta binding protein 3) | 2 | 0.0389 | 82.7 | -0.0755
LTBP3 (latent transforming growth factor beta binding protein 3) | 3 | -0.35 | 74.9 | -0.333
DEDD2 (death effector domain containing 2) | 1 | -0.772 | 66.5 | -0.269
DEDD2 (death effector domain containing 2) | 2 | -2.7 | 28.3 | -1.39
DEDD2 (death effector domain containing 2) | 3 | -0.129 | 79.3 | -0.138
HAS3 (hyaluronan synthase 3) | 1 | 0.345 | 88.7 | 0.406
HAS3 (hyaluronan synthase 3) | 2 | -0.335 | 75.2 | -0.3
HAS3 (hyaluronan synthase 3) | 3 | -0.701 | 68 | -0.648
PGBD2 (piggyBac transposable element derived 2) | 1 | -0.535 | 71.2 | -0.24
PGBD2 (piggyBac transposable element derived 2) | 2 | -1.98 | 42.4 | -1.24
PGBD2 (piggyBac transposable element derived 2) | 3 | 0.894 | 99.7 | 0.322
HOXC10 (homeobox C10) | 1 | -1.05 | 61.1 | -0.87
HOXC10 (homeobox C10) | 2 | -0.55 | 71 | -0.0138
HOXC10 (homeobox C10) | 3 | 0.208 | 86 | 0.0584
SLC2A14 | 1 | -2.5 | 32.2 | -2.62
SLC2A14 | 2 | -0.59 | 70.1 | -0.687
SLC2A14 | 3 | -0.381 | 74.3 | -0.486
